Hit rate of the full screen: of about 53,000 sequences, about 3,700 (7%) were called active.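 The calls were made as follows: active = gene knockdowns whose robust z-score for IL-1 alpha signal is at least 2 or at most -2, so actives lie on both sides; inactive = the rest.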 Some of the results follow.

The nature of the assay: Components of the Cytosolic LPS Sensing Pathway: Gene Identification via Genome-wide siRNA Screen.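 Also: robust z of the log signal after scaling to non-targeting control siRNA wells of the plate.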 The following applies: RAW264.7 macrophages, IL-1a HTRF, actives lie on both sides, screened at 100 nM (by protocol), cells primed 5 h with Pam3CSK4 first. An outline of the steps: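 RAW264.7 mouse macrophages reverse-transfected with single siRNAs (100 nM final) for 48h, primed with Pam3CSK4 for 5 hours, then transfected with LipidA for 24 hour. Supernatant IL-1a read by HTRF; values normalized to negative-control median, log-transformed robust z-scores.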
Take UAUGUCCUUGACAUUGGAGTT against Rnf225: the z-score is inactive: 0.211. As for GGAGAGAAAAAGGACUCAGTT against Kcnd2, the z-score is inactive: -1.67.

Turning to GCAAAAAUUAUGCAGAGCATT against Olfr1443, the z-score was inactive: 0.401. The same measure for GGAUGGAGUGCCCUCAAGUTT against Pdk2: inactive: -0.717.

As for GGAAUGAUCAUUCUAAUCCTT against Olfr1497, the z-score was inactive: 1.19. The value for GGAACGUGUUCAAAAGAGUTT against Sos1 was active: 2.22; that for GGCGGAGUUUUUAAUACUCTT against Upb1 was inactive: 1.79; that for GCUUUGUUUAUUUAGCCAGTT against Olfr154 was inactive: -0.877. The value for GCUCCUAGAUUGCACCUACTT against Sez6l2 was inactive: 1.17; that for CGGAUCUGAGAUAAAGACGTT against Arsj was inactive: 1; that for GGUGACUUUGAAAAAGCCATT against Hscb was inactive: -0.0876.

On to GGGAGAGAUGUGGAAAUCUTT against Rac2, for which the z-score was inactive: 0.0158.

As for GCAUGUUUAGAACUCGCUCTT against Zfp87, the z-score was inactive: -0.779. The value for CCUAACCUGAAAGUUCCAGTT against Atxn7l1 was inactive: 1.52.

As to CGAGUGAGUGACGGCUACATT against Sema3e, the z-score is inactive: -0.63.

With GGAAUCCUUUAUUCUUGUATT against Zfp687, the z-score is inactive: 0.585. The same measure for CGAAGAGAUCAGUAAUAUGTT against Kif21a: inactive: 0.31; for GGUUUGUAAAGGUUAUGACTT against Nell2: inactive: 0.0203; for GCUUUUACAAGACCUGUUCTT against Pde2a: inactive: -0.633.

Turning to GCAGCUCUGCGGAAGCUUUTT against Olfr1350, the z-score was inactive: -0.505. Regarding “GGACCCAAGAAGAUGACGUTT against 0610010K14Rik”, the z-score is inactive: -0.694.

Consider GCAAGUGGUAAUGGUGACCTT against Tex15, for which the z-score was inactive: -0.328.

With GGGAGUGUUUGAAUCUUUUTT against Ndc1, the z-score is inactive: -1.55.

As for GGGAUUGUAACAGCAUCCCTT against Epha6, the z-score was inactive: 0.594.

Regarding GCAAGGUGAUUUGUGUUCGTT against Lrrc4c, the z-score was inactive: -0.291.

As to GGUAAUAGGAGAUACUGUGTT against Gzme, the z-score was inactive: 0.624. The value for GCUCUAGGCAGAGCUAAGATT against Gsx1 was inactive: 1.68; that for GGUCCACUUGCCAUCUAUUTT against Zfp54 was inactive: -1.09. As to GGAAGUUGUAGUUUCGUGGTT against Tmem229a, the z-score is inactive: -0.432. The same measure for GGAACUUCGUCAGUACAUUTT against Setdb1: active: 5.77; for GGCUAAUGUGCUCUCUCAUTT against Olfr644: inactive: 0.958. The same measure for CCCGGAUGAGGAAUUCAUGTT against Pdlim7: inactive: 1.01.

Take GGACAAAAGGCAAUCUACATT against Mettl18: the z-score was active: 2.8. In the case of GGAGAUUGGGAUCAAAGCCTT against Mthfd1, the z-score is inactive: -1.56. With GGCUUUGGCGAUAAGACAUTT against Glud1, the z-score was active: 2.29.

For GGUUUGAGUUUAGAGUUCATT against Axl, the z-score is inactive: -1.68.

Take GGGCAAAAAUCCUCUAAAUTT against Gas7: the z-score is inactive: 0.157. The value for GGCUCUAAAGCAAUGGAUUTT against Chil5 was inactive: 1.28; that for GGAAGUGCAAGAAAGAUAUTT against Ltbp3 was inactive: -1.07; that for GGACAAACUGCCCUUACAGTT against BC048671 was inactive: -0.0643. The same measure for GGACUUUUGGAUAACUUAGTT against Lrrcc1: inactive: 0.943. For GGACAAUGUUUCCUCACUCTT against Xcl1, the z-score is inactive: -1.21. With CCAGACUAUUGACUUUCUGTT against Tspan15, the z-score was inactive: 0.198. For the sequence GGUUUAUUGUAAUGGCUAATT against Olfr1271, the z-score was inactive: 0.452.

In the case of GCUAUGGAUCAAAGAAUUATT against Senp1, the z-score was inactive: 0.204. In the case of CCUGUGAAUCACCCAAUCATT against Unc80, the z-score is inactive: 0.0313. For CGUGACCACAACUCAAGAATT against Lacc1, the z-score was inactive: -1.09. On to AAUCAGUUUGAAAUGGUAGTT against Olfr255, for which the z-score is inactive: -0.543. The same measure for GGAAGUUAUUGGAGCUUUGTT against Olfr706: inactive: 1.92. The value for CGCGCUGUGACUUUCAAAATT against Ifitm1 was inactive: 0.574; that for GGCUGUGACUAUGUUGUGCTT against Top3b was active: -2.15; that for GCGACUGCGUUCGUUAUUUTT against Matn1 was inactive: 1.38. The value for CCCAGCACAUGCUAUCUCUTT against Zbtb21 was active: -2.6; that for CCAGAGUCGCUACAAAAUUTT against Vmn1r93 was inactive: -0.346; that for GGAAAAGUCCUGUAAAAUUTT against Dmrta1 was inactive: -0.631.

As for GGAGACCUGGCAAAUGUAATT against Dctn5, the z-score is inactive: 0.884. Consider GGUAAAUAGUCACCUACGGTT against Cyb5r3, for which the z-score is inactive: 1.4. The value for CUUCAAUACACGAGUUGUCTT against Olfr1126 was inactive: 0.123.

For the sequence GGAGAUCCUGGAAGACUUCTT against Ocstamp, the z-score was active: 2.18.

For GGAGAGGAGACACAUCAGUTT against Gnpat, the z-score was inactive: -0.067. The same measure for GCCGUUAGGAAAAAACGAUTT against Tbcb: inactive: 1.38. The value for GGUCUGUUUCUGAACUCCUTT against Hace1 was inactive: -0.14; that for GCACCUGUUUGAGAUUACGTT against Arhgap22 was inactive: 1.02; that for GCCUGUGAACCUGUAUUGUTT against Unc5c was inactive: -0.12. Regarding CCAUGCUUAGCUCAAUAGUTT against Pla2g3, the z-score is inactive: 0.442.

For CCCUGUGUACAGAGAAAGGTT against Pabpn1l, the z-score was inactive: -0.228.

For the sequence GGACUUAUUAUGUGAGUGUTT against Ncbp2, the z-score was inactive: 0.555. On to GGUUUGUUUAGCUUGAAACTT against Ccr1, for which the z-score was inactive: -0.227. The same measure for GGAAGUUUGUGUCUGAUGUTT against Lpar6: inactive: -0.512; for GGAUGGUUAUCAGGAAAAUTT against Scel: inactive: 0.267. On to CGACCCUGACAGAAUACUCTT against Saraf, for which the z-score was inactive: -1.18.

With GGAGUCCGCUCAGAAUUUGTT against Lhpp, the z-score was inactive: -0.194. The same measure for GGCAGAAAUGAAAACACUUTT against Ier5l: inactive: -0.572. As for GGCUUAUGUCCCAAAGCUATT against Nexn, the z-score was inactive: -0.633.

Turning to CGUCACCUACCAAGGAGAGTT against Enpp7, the z-score is inactive: -1.85. For GGGCCAAGAAAACCUACACTT against Cyp11b2, the z-score is active: 2.63. For the sequence GGACAGCUCUCAGAAUUCUTT against Ctse, the z-score was inactive: -1.13. Turning to GGAACCCAAGUAGCCUUGUTT against Serf2, the z-score was inactive: 0.117. The same measure for GGGCUCUUAUAUAAUAGUUTT against Slc36a2: inactive: 0.0105; for CCAACAUCCUUAAGCGGCUTT against Lonp1: inactive: -0.161. Consider CGAGCUAGAUGACUUACUATT against Pkp4, for which the z-score is inactive: 0.436. The value for CCCUGUCAUCAUUGAUGGGTT against Bdh2 was inactive: 1.12; that for GGUAGUUGUGCCAGAAAAATT against Garre1 was inactive: 0.0675. With GGAUAUACAAGCACAAACUTT against Gjc3, the z-score is inactive: 0.432. Turning to GGAUCUAAUAAACCAAGUGTT against Slc25a10, the z-score was inactive: 1.21.

Take GGACGUACAUGAUGAUGUUTT against Gramd1b: the z-score was inactive: 0.324.

On to GGACAAGAGACUUCAUAGCTT against Grpel2, for which the z-score was inactive: 0.534. Regarding GGGUUUGAAUGUUAUGACATT against Hhipl2, the z-score was inactive: 0.0324. Turning to GGACACUUCCAAACUGACCTT against Tiparp, the z-score was inactive: -1.43. The value for GGUUGCACUACCUUCAUAUTT against Susd6 was inactive: 0.238; that for GGGUUUAUCUUGAAGAAAATT against Cd48 was inactive: 0.0374. The value for GGAAAACUUUUCUGUCUGUTT against Dhx32 was inactive: 0.93. Take GCAGCUAACAAAUGUCAGCTT against Popdc3: the z-score was inactive: -0.566. GGACUAUAAAUGUAUUCUCTT against Tfpi2: the z-score was inactive: -0.684.

GCCAGAGUCAUCUACUUUUTT against Tmco4: the z-score is inactive: -0.844. The same measure for GCAUUAUCAACCGGAUUGATT against Gipc3: inactive: -0.0129; for GCUUGAAUGGAGCGAAUCGTT against Chat: active: 4.86; for GGGACCAGAACAAGGUAGUTT against Olfr488: inactive: 0.169.

Take CGUGGUAUGGUAAUGAUACTT against Scn4a: the z-score is inactive: 1.03. Consider GGCGAAAGUAAGACAAAGUTT against Ric8a, for which the z-score is inactive: 0.708.

Consider GCUUUAUCGCAGAAAAGGUTT against Nova2, for which the z-score was inactive: 0.246. As to CCCUCAGAUGAUCUGUGCCTT against Prss50, the z-score is inactive: -1.59.

Turning to GGCUUUUAGCCAGAAAGAATT against Zfp260, the z-score was inactive: 0.667. The same measure for GGUCAACUUUCUACAAAAGTT against Cep112: inactive: -1.37; for CGAGAUUCUGCCUUUUCAGTT against Tfcp2: inactive: 1.84. The same measure for GCUUCAGCUCUGAUUAACGTT against Alox8: inactive: -0.233; for CCUUAUAUCUUGGUAUACGTT against Bmp3: inactive: -0.269.

(Values after PubChem BioAssay AID1508600 (Functional Genomics Laboratory (NCATS/FGL), 2020).)
